Test results from the supplement of paper PMC11438910.
This is one part of the list. The signal is at background level for most entries.

How the values were obtained:
Test in all cases: fluorescence intensity of antibody binding to polysaccharide-coupled beads; higher = stronger binding
[1] = molecular target: pneumococcal polysaccharide Pn11F
[2] = molecular target: pneumococcal polysaccharide Pn12A
[3] = molecular target: pneumococcal polysaccharide Pn12B
[4] = molecular target: pneumococcal polysaccharide Pn12F
[5] = molecular target: pneumococcal polysaccharide Pn13
[6] = molecular target: pneumococcal polysaccharide Pn14
[7] = molecular target: pneumococcal polysaccharide Pn15A
[8] = molecular target: pneumococcal polysaccharide Pn15B
[9] = molecular target: pneumococcal polysaccharide Pn15C
[10] = molecular target: pneumococcal polysaccharide Pn15F
[11] = molecular target: pneumococcal polysaccharide Pn16A
[12] = molecular target: pneumococcal polysaccharide Pn16F
[13] = molecular target: pneumococcal polysaccharide Pn17A
[14] = molecular target: pneumococcal polysaccharide Pn17F
[15] = molecular target: pneumococcal polysaccharide Pn18A
[16] = molecular target: pneumococcal polysaccharide Pn18B
[17] = molecular target: pneumococcal polysaccharide Pn18C
[18] = molecular target: pneumococcal polysaccharide Pn18F
[19] = molecular target: pneumococcal polysaccharide Pn19A
[20] = molecular target: pneumococcal polysaccharide Pn19B
[21] = molecular target: pneumococcal polysaccharide Pn19C
[22] = molecular target: pneumococcal polysaccharide Pn19F
[23] = molecular target: pneumococcal polysaccharide Pn2
[24] = antibody concentration 2.8593 ng/mL
[25] = antibody concentration 15.2894 ng/mL
[26] = antibody concentration 81.7561 ng/mL
[27] = antibody concentration 437.17 ng/mL
[28] = antibody concentration 2337.65 ng/mL
[29] = antibody concentration 12500 ng/mL
[30] = antibody concentration 0.1 ng/mL
[31] = antibody concentration 0.534724 ng/mL

B1: 4-80.3 (protein)
chain 1: QVQLQESGPGLVKPSETLSLTCAVSGGSFSSYWWSWIRQPPGKGLEWIGEINGNSGSTNYNPSLKSRVTISKDASKNQFSLKLSSVTAADTAVYYCARYKNVWGRGVLVTVSS
chain 2: DVVMTQSPLSLPITPGQPASISCRSSQSLVHSNGNTYLSWYQQKPGQPPRRLIYQVSNRDSGVPDRFSGSGAGTDFTLKISRVEAEDVGVYYCGQGTNVPTFGQGTKVEIK
- fluorescence intensity [1, 24]: 12 MFI
- fluorescence intensity [1, 25]: 13.5 MFI
- fluorescence intensity [1, 26]: 15.5 MFI
- fluorescence intensity [1, 27]: 13.2 MFI
- fluorescence intensity [1, 28]: 19.5 MFI
- fluorescence intensity [1, 29]: 38 MFI
- fluorescence intensity [2, 30]: 16 MFI
- fluorescence intensity [2, 31]: 14.5 MFI
- fluorescence intensity [2, 24]: 15.5 MFI
- fluorescence intensity [2, 25]: 15.5 MFI
- fluorescence intensity [2, 26]: 14.8 MFI
- fluorescence intensity [2, 27]: 16 MFI
- fluorescence intensity [2, 28]: 26.5 MFI
- fluorescence intensity [2, 29]: 76 MFI
- fluorescence intensity [3, 30]: 17.8 MFI
- fluorescence intensity [3, 31]: 17 MFI
- fluorescence intensity [3, 24]: 15 MFI
- fluorescence intensity [3, 25]: 16 MFI
- fluorescence intensity [3, 26]: 15 MFI
- fluorescence intensity [3, 27]: 17.5 MFI
- fluorescence intensity [3, 28]: 26 MFI
- fluorescence intensity [3, 29]: 77.5 MFI
- fluorescence intensity [4, 30]: 18.5 MFI
- fluorescence intensity [4, 31]: 18.2 MFI
- fluorescence intensity [4, 24]: 19 MFI
- fluorescence intensity [4, 25]: 19.2 MFI
- fluorescence intensity [4, 26]: 19.5 MFI
- fluorescence intensity [4, 27]: 23 MFI
- fluorescence intensity [4, 28]: 51.5 MFI
- fluorescence intensity [4, 29]: 224 MFI
- fluorescence intensity [5, 30]: 20 MFI
- fluorescence intensity [5, 31]: 20 MFI
- fluorescence intensity [5, 24]: 18 MFI
- fluorescence intensity [5, 25]: 19 MFI
- fluorescence intensity [5, 26]: 18.8 MFI
- fluorescence intensity [5, 27]: 19.5 MFI
- fluorescence intensity [5, 28]: 29.5 MFI
- fluorescence intensity [5, 29]: 90.5 MFI
- fluorescence intensity [6, 30]: 14 MFI
- fluorescence intensity [6, 31]: 17 MFI
- fluorescence intensity [6, 24]: 15.2 MFI
- fluorescence intensity [6, 25]: 15.5 MFI
- fluorescence intensity [6, 26]: 16.5 MFI
- fluorescence intensity [6, 27]: 28.2 MFI
- fluorescence intensity [6, 28]: 124 MFI
- fluorescence intensity [6, 29]: 844 MFI
- fluorescence intensity [7, 30]: 13.2 MFI
- fluorescence intensity [7, 31]: 11.5 MFI
- fluorescence intensity [7, 24]: 12.5 MFI
- fluorescence intensity [7, 25]: 12.5 MFI
- fluorescence intensity [7, 26]: 13.5 MFI
- fluorescence intensity [7, 27]: 15 MFI
- fluorescence intensity [7, 28]: 15.8 MFI
- fluorescence intensity [7, 29]: 24.5 MFI
- fluorescence intensity [8, 30]: 18.5 MFI
- fluorescence intensity [8, 31]: 19.5 MFI
- fluorescence intensity [8, 24]: 19 MFI
- fluorescence intensity [8, 25]: 19.5 MFI
- fluorescence intensity [8, 26]: 20.2 MFI
- fluorescence intensity [8, 27]: 25.8 MFI
- fluorescence intensity [8, 28]: 31.5 MFI
- fluorescence intensity [8, 29]: 68 MFI
- fluorescence intensity [9, 30]: 17.5 MFI
- fluorescence intensity [9, 31]: 16.5 MFI
- fluorescence intensity [9, 24]: 17 MFI
- fluorescence intensity [9, 25]: 15 MFI
- fluorescence intensity [9, 26]: 16.5 MFI
- fluorescence intensity [9, 27]: 19.5 MFI
- fluorescence intensity [9, 28]: 20.5 MFI
- fluorescence intensity [9, 29]: 34 MFI
- fluorescence intensity [10, 30]: 17 MFI
- fluorescence intensity [10, 31]: 17.8 MFI
- fluorescence intensity [10, 24]: 17 MFI
- fluorescence intensity [10, 25]: 17 MFI
- fluorescence intensity [10, 26]: 18 MFI
- fluorescence intensity [10, 27]: 18.5 MFI
- fluorescence intensity [10, 28]: 25.5 MFI
- fluorescence intensity [10, 29]: 46.5 MFI
- fluorescence intensity [11, 30]: 13.5 MFI
- fluorescence intensity [11, 31]: 15.5 MFI
- fluorescence intensity [11, 24]: 14.5 MFI
- fluorescence intensity [11, 25]: 16.8 MFI
- fluorescence intensity [11, 26]: 11 MFI
- fluorescence intensity [11, 27]: 14.5 MFI
- fluorescence intensity [11, 28]: 22 MFI
- fluorescence intensity [11, 29]: 52.5 MFI
- fluorescence intensity [12, 30]: 24.8 MFI
- fluorescence intensity [12, 31]: 25.5 MFI
- fluorescence intensity [12, 24]: 21.8 MFI
- fluorescence intensity [12, 25]: 24.2 MFI
- fluorescence intensity [12, 26]: 26.8 MFI
- fluorescence intensity [12, 27]: 30.2 MFI
- fluorescence intensity [12, 28]: 36.5 MFI
- fluorescence intensity [12, 29]: 71.5 MFI
- fluorescence intensity [13, 30]: 21 MFI
- fluorescence intensity [13, 31]: 20.5 MFI
- fluorescence intensity [13, 24]: 20 MFI
- fluorescence intensity [13, 25]: 19.5 MFI
- fluorescence intensity [13, 26]: 21.5 MFI
- fluorescence intensity [13, 27]: 22.2 MFI
- fluorescence intensity [13, 28]: 24.5 MFI
- fluorescence intensity [13, 29]: 36 MFI
- fluorescence intensity [14, 30]: 24.8 MFI
- fluorescence intensity [14, 31]: 26 MFI
- fluorescence intensity [14, 24]: 26.5 MFI
- fluorescence intensity [14, 25]: 25.5 MFI
- fluorescence intensity [14, 26]: 26.5 MFI
- fluorescence intensity [14, 27]: 29.5 MFI
- fluorescence intensity [14, 28]: 31.5 MFI
- fluorescence intensity [14, 29]: 39.5 MFI
- fluorescence intensity [15, 30]: 25 MFI
- fluorescence intensity [15, 31]: 23.5 MFI
- fluorescence intensity [15, 24]: 25 MFI
- fluorescence intensity [15, 25]: 23.5 MFI
- fluorescence intensity [15, 26]: 24.5 MFI
- fluorescence intensity [15, 27]: 25 MFI
- fluorescence intensity [15, 28]: 29 MFI
- fluorescence intensity [15, 29]: 49.5 MFI
- fluorescence intensity [16, 30]: 32 MFI
- fluorescence intensity [16, 31]: 30 MFI
- fluorescence intensity [16, 24]: 30.5 MFI
- fluorescence intensity [16, 25]: 32.5 MFI
- fluorescence intensity [16, 26]: 31 MFI
- fluorescence intensity [16, 27]: 36 MFI
- fluorescence intensity [16, 28]: 45.5 MFI
- fluorescence intensity [16, 29]: 90.8 MFI
- fluorescence intensity [17, 30]: 19.5 MFI
- fluorescence intensity [17, 31]: 19 MFI
- fluorescence intensity [17, 24]: 18 MFI
- fluorescence intensity [17, 25]: 20 MFI
- fluorescence intensity [17, 26]: 20.8 MFI
- fluorescence intensity [17, 27]: 24.5 MFI
- fluorescence intensity [17, 28]: 36.8 MFI
- fluorescence intensity [17, 29]: 83.5 MFI
- fluorescence intensity [18, 30]: 22.5 MFI
- fluorescence intensity [18, 31]: 23.5 MFI
- fluorescence intensity [18, 24]: 23 MFI
- fluorescence intensity [18, 25]: 24.5 MFI
- fluorescence intensity [18, 26]: 26 MFI
- fluorescence intensity [18, 27]: 30 MFI
- fluorescence intensity [18, 28]: 43 MFI
- fluorescence intensity [18, 29]: 94.8 MFI
- fluorescence intensity [19, 30]: 17.5 MFI
- fluorescence intensity [19, 31]: 19 MFI
- fluorescence intensity [19, 24]: 20 MFI
- fluorescence intensity [19, 25]: 17.8 MFI
- fluorescence intensity [19, 26]: 19.2 MFI
- fluorescence intensity [19, 27]: 23 MFI
- fluorescence intensity [19, 28]: 30.8 MFI
- fluorescence intensity [19, 29]: 81.5 MFI
- fluorescence intensity [20, 30]: 30.8 MFI
- fluorescence intensity [20, 31]: 29.5 MFI
- fluorescence intensity [20, 24]: 30 MFI
- fluorescence intensity [20, 25]: 28.8 MFI
- fluorescence intensity [20, 26]: 29.8 MFI
- fluorescence intensity [20, 27]: 31.5 MFI
- fluorescence intensity [20, 28]: 111 MFI
- fluorescence intensity [20, 29]: 801 MFI
- fluorescence intensity [21, 30]: 28.2 MFI
- fluorescence intensity [21, 31]: 23.8 MFI
- fluorescence intensity [21, 24]: 24.5 MFI
- fluorescence intensity [21, 25]: 26 MFI
- fluorescence intensity [21, 26]: 25 MFI
- fluorescence intensity [21, 27]: 32.5 MFI
- fluorescence intensity [21, 28]: 78.5 MFI
- fluorescence intensity [21, 29]: 503 MFI
- fluorescence intensity [22, 30]: 24.5 MFI
- fluorescence intensity [22, 31]: 26 MFI
- fluorescence intensity [22, 24]: 25.5 MFI
- fluorescence intensity [22, 25]: 29.5 MFI
- fluorescence intensity [22, 26]: 27 MFI
- fluorescence intensity [22, 27]: 32.8 MFI
- fluorescence intensity [22, 28]: 47.5 MFI
- fluorescence intensity [22, 29]: 128 MFI
- fluorescence intensity [23, 30]: 20 MFI
- fluorescence intensity [23, 31]: 20 MFI
- fluorescence intensity [23, 24]: 20.8 MFI
- fluorescence intensity [23, 25]: 19.5 MFI
- fluorescence intensity [23, 26]: 22.5 MFI
- fluorescence intensity [23, 27]: 22.5 MFI
